This is an account of results in US20260266848A1, “COMPOSITIONS AND METHODS FOR DIAGNOSING AND TREATING DYSTONIA” (Duke University, priority 2023, published 2026).

Where no unit stands, none is given here, and values compare only within one read-out.

The series relates to DYT1 patient plasma. Nature of the series: Whole plasma metabolomics (Biocrates MxP Quant 500 Kit), DYT1 vs Healthy Controls. To be noted: for Mean of DYT1-Dystonia: DYT1-Dystonia group; for Mean of Healthy Control: Healthy Control group.
Setting [1] is: DYT1-Dystonia vs Healthy Control.
[2] abbreviates: Mean of Healthy Control minus Mean of DYT1-Dystonia.
[3] abbreviates: human whole plasma metabolite level.
The mark [4] stands for this setting: Healthy Control mean minus DYT1-Dystonia mean.

Regarding `N[C@@H](CS)C(=O)O` [Cys_Aminoacids], the LogFC under setting [1] was 0.3767. The compound further gave a Difference under setting [2] of −30.77. Under setting [3], the “Mean of DYT1-Dystonia” value came out at 133.6 and the “Mean of Healthy Control” value was 102.9.

As for `N[C@@H](CSSC[C@H](N)C(=O)O)C(=O)O` [Cystine_Aminoacids Related], under setting [1], the LogFC turned out to be 0.8573 and the Ratio is recorded as 1.812. Under setting [2], this compound came in with a Difference of −110.2. Besides, under setting [3], the “Mean of DYT1-Dystonia” value was 246.2 and the “Mean of Healthy Control” value is recorded as 135.9.

Compound `C[C@H](CCC(=O)O)[C@H]1CC[C@H]2[C@@H]3CC[C@@H]4C[C@H](O)CC[C@]4(C)[C@H]3C[C@H](O)[C@]12C` [DCA_Bile Acids] displayed a Difference under setting [2] of −0.1175. Moreover, under setting [3], the “Mean of DYT1-Dystonia” value came out at 0.4329 and the “Mean of Healthy Control” value amounted to 0.3154.

The compound `CC/C=C\C/C=C\C/C=C\C/C=C\C/C=C\C/C=C\CCC(=O)O` [DHA_Fatty Acids] had a Difference under setting [2] of 0.3141. For the same compound, under setting [3], the “Mean of DYT1-Dystonia” value worked out at 1.024 and the “Mean of Healthy Control” value stood at 1.338.

Consider `C[C@]12CC[C@H](OS(=O)(=O)O)CC1=CC[C@@H]1[C@@H]2CC[C@]2(C)C(=O)CC[C@@H]12` [DHEAS_Hormones], for which the Difference under setting [2] is listed as −2.622. Besides, under setting [3], the “Mean of DYT1-Dystonia” value turned out to be 7.027 and the “Mean of Healthy Control” value was 4.405.

Under setting [2], `CC/C=C\C/C=C\C/C=C\C/C=C\C/C=C\CCCC(=O)O` [EPA_Fatty Acids] gave a Difference of 0.06759. Further, under setting [3], the “Mean of DYT1-Dystonia” value came out at 0.161 and the “Mean of Healthy Control” value turned out to be 0.2286.

Consider `NCCCC(=O)O` [GABA_Biogenic Amines], for which the Difference under setting [2] is 0.02811. Also, under setting [3], the “Mean of DYT1-Dystonia” value was found to be 0.2481 and the “Mean of Healthy Control” value is reported as 0.2762.

Turning to `C[C@H](CCC(=O)NCC(=O)O)[C@H]1CC[C@H]2[C@@H]3[C@H](O)C[C@@H]4C[C@H](O)CC[C@]4(C)[C@H]3C[C@H](O)[C@]12C` [GCA_Bile Acids], the Difference under setting [2] is reported as −0.04737. Under setting [3], the “Mean of DYT1-Dystonia” value was 0.1578 and the “Mean of Healthy Control” value was 0.1104.

As for `C[C@H](CCC(=O)NCC(=O)O)[C@H]1CC[C@H]2[C@@H]3[C@H](O)C[C@@H]4C[C@H](O)CC[C@]4(C)[C@H]3CC[C@]12C` [GCDCA_Bile Acids], the Difference under setting [2] is on record as −0.7857. Also, under setting [3], the “Mean of DYT1-Dystonia” value is 4.677 and the “Mean of Healthy Control” value came to 3.892.

Turning to `C[C@H](CCC(=O)NCC(=O)O)[C@H]1CC[C@H]2[C@@H]3CC[C@@H]4C[C@H](O)CC[C@]4(C)[C@H]3C[C@H](O)[C@]12C` [GDCA_Bile Acids], the Difference under setting [4] is recorded as −0.05284. Besides, under “human plasma metabolite level”, the “Mean of DYT1-Dystonia” value is on record as 0.336 and the “Mean of Healthy Control” value is on record as 0.2832.

As for `C[C@H](CCC(=O)NCC(=O)O)[C@H]1CC[C@H]2[C@@H]3CC[C@@H]4C[C@H](OS(=O)(=O)O)CC[C@]4(C)[C@H]3CC[C@]12C` [GLCAS_Bile Acids], the Difference under setting [4] worked out at 0.08451. Further, where the note is “human plasma metabolite level”, the “Mean of DYT1-Dystonia” value amounted to 1.067 and the “Mean of Healthy Control” value came out at 1.151.

Under setting [2], `C[C@H](CCC(=O)NCC(=O)O)[C@H]1CC[C@H]2[C@@H]3CC[C@@H]4C[C@H](O)CC[C@]4(C)[C@H]3CC[C@]12C` [GLCA_Bile Acids] gave a Difference of 0.01912. In addition, under setting [3], the “Mean of DYT1-Dystonia” value is 0.05948 and the “Mean of Healthy Control” value is listed as 0.0786.

Regarding `C[C@H](CCC(=O)NCC(=O)O)[C@H]1CC[C@H]2[C@@H]3[C@@H](O)C[C@@H]4C[C@H](O)CC[C@]4(C)[C@H]3CC[C@]12C` [GUDCA_Bile Acids], the Difference under setting [4] was found to be 0.005686. Under “human plasma metabolite level”, the “Mean of DYT1-Dystonia” value came out at 0.07218 and the “Mean of Healthy Control” value worked out at 0.07787.

Consider `NC(=O)CC[C@H](N)C(=O)O` [Gln_Aminoacids], for which the Difference under setting [2] amounted to 32.81. Further, under setting [3], the “Mean of DYT1-Dystonia” value is 890.1 and the “Mean of Healthy Control” value worked out at 922.9.

`N[C@@H](CCC(=O)O)C(=O)O` [Glu_Aminoacids] showed a Difference under setting [2] of 11.52. In addition, under setting [3], the “Mean of DYT1-Dystonia” value amounted to 53.47 and the “Mean of Healthy Control” value is listed as 64.99.

Compound `NCC(=O)O` [Gly_Aminoacids] came in with a Difference under setting [2] of 70.99. Moreover, under setting [3], the “Mean of DYT1-Dystonia” value stood at 335.3 and the “Mean of Healthy Control” value was found to be 406.3.

Regarding `NC(N)=NCCCC[C@H](N)C(=O)O` [HArg_Aminoacids Related], the Difference under setting [2] is on record as −0.2218. Also, under setting [3], the “Mean of DYT1-Dystonia” value is reported as 2.502 and the “Mean of Healthy Control” value is 2.28.

Turning to `NC(CCS)C(=O)O` (stereo not drawn) [HCys_Aminoacids Related], under setting [4], the Difference is given as −0.2953. For the same compound, where the note is “human plasma metabolite level”, the “Mean of DYT1-Dystonia” value is 6.024 and the “Mean of Healthy Control” value was 5.729.

Take `O=C(O)CNC(=O)c1ccccc1` [HipAcid_Carboxylic Acids]: the Difference under setting [2] is listed as 1.214. For the same compound, under setting [3], the “Mean of DYT1-Dystonia” value was 3.592 and the “Mean of Healthy Control” value is listed as 4.806.

Regarding `O=c1[nH]cnc2nc[nH]c12` [Hypoxanthine_Nucleobases Related], the Difference under setting [2] amounted to 1.351. Further, under setting [3], the “Mean of DYT1-Dystonia” value amounted to 3.012 and the “Mean of Healthy Control” value was 1.661.

On to `CC[C@H](C)[C@H](N)C(=O)O` [Ile_Aminoacids], for which, under setting [2], the Difference amounted to 16.33. Further, under setting [3], the “Mean of DYT1-Dystonia” value is 103.1 and the “Mean of Healthy Control” value was 119.4.

Regarding `O=S(=O)(O)Oc1c[nH]c2ccccc12` [Ind-SO4_Indoles Derivatives], the Difference under setting [4] amounted to 0.0819. Also, where the note is “human plasma metabolite level”, the “Mean of DYT1-Dystonia” value was determined as 1.788 and the “Mean of Healthy Control” value was 1.87.

`Nc1ccccc1C(=O)CC(N)C(=O)O` (stereo not drawn) [Kynurenine_Aminoacids Related] returned a Difference under setting [2] of 0.2116. Under setting [3], the “Mean of DYT1-Dystonia” value is recorded as 2.278 and the “Mean of Healthy Control” value was determined as 2.489.

Turning to `CC(O)C(=O)O` (stereo not drawn) [Lac_Carboxylic Acids], the Difference under setting [2] was −162.8. For the same compound, under setting [3], the “Mean of DYT1-Dystonia” value is 1715 and the “Mean of Healthy Control” value worked out at 1552.

`CC(C)C[C@H](N)C(=O)O` [Leu_Aminoacids]: the Difference under setting [2] was 14.93. Besides, under setting [3], the “Mean of DYT1-Dystonia” value stood at 172 and the “Mean of Healthy Control” value amounted to 186.9.

The compound `NCCCC[C@H](N)C(=O)O` [Lys_Aminoacids] displayed a Difference under setting [2] of 22.53. Under setting [3], the “Mean of DYT1-Dystonia” value is reported as 279.8 and the “Mean of Healthy Control” value worked out at 302.3.

In turn, `CSCC[C@H](N)C(=O)O` [Met_Aminoacids] returned a Difference under setting [2] of 6.934. In addition, under setting [3], the “Mean of DYT1-Dystonia” value came to 34.78 and the “Mean of Healthy Control” value was 41.71.

`NCCC[C@H](N)C(=O)O` [Orn_Aminoacids Related] registered a Difference under setting [4] of −0.7467. Also, where the note is “human plasma metabolite level”, the “Mean of DYT1-Dystonia” value was 105.9 and the “Mean of Healthy Control” value was found to be 105.1.

For the compound `N[C@@H](Cc1ccccc1)C(=O)O` [Phe_Aminoacids], the Difference under setting [2] was found to be 7.766. Under setting [3], the “Mean of DYT1-Dystonia” value turned out to be 78.71 and the “Mean of Healthy Control” value stood at 86.47.

In turn, `C[N+]1(C)CCC[C@H]1C(=O)[O-]` [ProBetaine_Aminoacids Related] displayed a Difference under setting [2] of −10.95. In addition, under setting [3], the “Mean of DYT1-Dystonia” value stood at 22.35 and the “Mean of Healthy Control” value is recorded as 11.4.

In the case of `O=C(O)[C@@H]1CCCN1` [Pro_Aminoacids], the Difference under setting [2] amounted to 64.55. Further, under setting [3], the “Mean of DYT1-Dystonia” value came to 289.2 and the “Mean of Healthy Control” value turned out to be 353.8.

Under setting [4], `NCCCCN` [Putrescine_Biogenic Amines] showed a Difference of −0.006234. For the setting “human plasma metabolite level”, the “Mean of DYT1-Dystonia” value came to 0.1204 and the “Mean of Healthy Control” value is listed as 0.1141.

In turn, `CN=C(NC)NCCC[C@H](N)C(=O)O` [SDMA_Aminoacids Related] gave a Difference under setting [2] of 0.05593. In addition, under setting [3], the “Mean of DYT1-Dystonia” value came out at 0.6239 and the “Mean of Healthy Control” value stood at 0.6799.

Under setting [2], `CNCC(=O)O` [Sarcosine_Aminoacids Related] showed a Difference of −8.353. Under setting [3], the “Mean of DYT1-Dystonia” value is 15.48 and the “Mean of Healthy Control” value was determined as 7.123.

Under setting [2], `N[C@@H](CO)C(=O)O` [Ser_Aminoacids] had a Difference of 18.37. Besides, under setting [3], the “Mean of DYT1-Dystonia” value was 131.8 and the “Mean of Healthy Control” value turned out to be 150.2.

In turn, `C[C@H](CCC(=O)NCCS(=O)(=O)O)[C@H]1CC[C@H]2[C@@H]3[C@H](O)C[C@@H]4C[C@H](O)CC[C@]4(C)[C@H]3C[C@H](O)[C@]12C` [TCA_Bile Acids] displayed a Difference under setting [4] of −0.00006463. In addition, under “human plasma metabolite level”, the “Mean of DYT1-Dystonia” value was 0.1122 and the “Mean of Healthy Control” value turned out to be 0.1121.

Take `C[C@H](CCC(=O)NCCS(=O)(=O)O)[C@H]1CC[C@H]2[C@@H]3[C@H](O)C[C@@H]4C[C@H](O)CC[C@]4(C)[C@H]3CC[C@]12C` [TCDCA_Bile Acids]: the Difference under setting [2] was 0.03368. Also, under setting [3], the “Mean of DYT1-Dystonia” value is recorded as 0.1437 and the “Mean of Healthy Control” value was 0.1773.

Under setting [2], `C[C@H](CCC(=O)NCCS(=O)(=O)O)[C@H]1CC[C@H]2[C@@H]3CC[C@@H]4C[C@H](O)CC[C@]4(C)[C@H]3C[C@H](O)[C@]12C` [TDCA_Bile Acids] returned a Difference of −0.04063. Moreover, under setting [3], the “Mean of DYT1-Dystonia” value is listed as 0.2044 and the “Mean of Healthy Control” value is 0.1637.

Regarding `C[C@H](CCC(=O)NCCS(=O)(=O)O)[C@H]1CC[C@H]2[C@@H]3CC[C@@H]4C[C@H](O)CC[C@]4(C)[C@H]3CC[C@]12C` [TLCA_Bile Acids], the Difference under setting [2] is 0.0006803. In addition, under setting [3], the “Mean of DYT1-Dystonia” value is 0.003238 and the “Mean of Healthy Control” value is listed as 0.003919.

In the case of `C[N+](C)(C)[O-]` [TMAO_Amine Oxides], the Difference under setting [2] is on record as −2.576. Moreover, under setting [3], the “Mean of DYT1-Dystonia” value stood at 9.295 and the “Mean of Healthy Control” value is on record as 6.719.

`NCCS(=O)(=O)O` [Taurine_Aminoacids Related]: under setting [2], the Difference is on record as −4.476. In addition, under setting [3], the “Mean of DYT1-Dystonia” value is 67.96 and the “Mean of Healthy Control” value is on record as 63.49.
